Reference: paper PMC8649869
No constants are given. Whether binding was seen depends on the method and setting. Binding seen in cells or lysates may run through a third protein. Some entries that bind do so weakly or less than the wild type.

The chains behind the UniProt entries cited, without tags or fusion partners.
UniProt P18848: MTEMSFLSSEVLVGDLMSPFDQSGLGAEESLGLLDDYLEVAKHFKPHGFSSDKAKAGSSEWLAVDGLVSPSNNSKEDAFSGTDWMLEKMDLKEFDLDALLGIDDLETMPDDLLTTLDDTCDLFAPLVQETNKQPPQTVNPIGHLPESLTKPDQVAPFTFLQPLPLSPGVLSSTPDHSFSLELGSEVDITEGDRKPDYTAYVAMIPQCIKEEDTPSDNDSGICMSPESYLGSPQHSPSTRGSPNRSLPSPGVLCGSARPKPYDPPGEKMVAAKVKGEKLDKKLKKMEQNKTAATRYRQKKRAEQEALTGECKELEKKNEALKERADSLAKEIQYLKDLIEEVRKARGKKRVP
UniProt Q9GZV5: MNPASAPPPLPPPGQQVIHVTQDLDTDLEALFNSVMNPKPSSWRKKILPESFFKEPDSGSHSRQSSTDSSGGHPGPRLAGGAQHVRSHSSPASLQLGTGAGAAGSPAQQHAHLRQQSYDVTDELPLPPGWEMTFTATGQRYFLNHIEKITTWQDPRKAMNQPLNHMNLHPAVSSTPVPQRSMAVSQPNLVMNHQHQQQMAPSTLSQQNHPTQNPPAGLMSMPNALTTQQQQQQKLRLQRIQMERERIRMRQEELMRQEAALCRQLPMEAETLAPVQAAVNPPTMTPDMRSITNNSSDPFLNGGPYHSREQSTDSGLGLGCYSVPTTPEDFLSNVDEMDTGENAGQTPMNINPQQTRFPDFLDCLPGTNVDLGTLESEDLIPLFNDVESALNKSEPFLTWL
UniProt P46937: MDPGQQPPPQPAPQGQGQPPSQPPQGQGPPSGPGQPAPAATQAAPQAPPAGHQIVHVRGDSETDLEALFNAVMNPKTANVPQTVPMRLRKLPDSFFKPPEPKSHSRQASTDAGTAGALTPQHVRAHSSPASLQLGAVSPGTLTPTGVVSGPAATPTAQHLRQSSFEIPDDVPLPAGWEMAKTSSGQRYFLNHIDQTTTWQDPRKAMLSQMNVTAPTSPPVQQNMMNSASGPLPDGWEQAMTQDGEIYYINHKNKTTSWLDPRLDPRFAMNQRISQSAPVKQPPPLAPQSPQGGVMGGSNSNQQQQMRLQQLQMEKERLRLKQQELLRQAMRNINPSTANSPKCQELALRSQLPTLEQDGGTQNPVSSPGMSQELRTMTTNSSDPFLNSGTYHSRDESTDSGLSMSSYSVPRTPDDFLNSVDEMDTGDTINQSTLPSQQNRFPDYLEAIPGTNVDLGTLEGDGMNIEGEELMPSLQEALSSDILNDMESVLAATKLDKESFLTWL

Target: ATF4 (human (endogenous in HLE)) (UniProt P18848)
Test: co-IP; HLE cells cultured with 6 μM Sorafenib for 18 h; lysed with CST lysis buffer with protease inhibitors at 4°C; ATF4 immunoprecipitated with specific antibody and protein A/G-Sepharose overnight at 4°C, five washes; YAP, TAZ and ATF4 detected by immunoblotting; unrelated IgG as control

Row | Substance | binding
1 | TAZ (from UniProt Q9GZV5 1-400) | binds
2 | YAP (from UniProt P46937 1-504) | binds
